This is an account of results in article PMC9616699.

The chains behind the UniProt entries cited, without tags or fusion partners. Residues count along the entry.
UniProt P40259, residues 29-229: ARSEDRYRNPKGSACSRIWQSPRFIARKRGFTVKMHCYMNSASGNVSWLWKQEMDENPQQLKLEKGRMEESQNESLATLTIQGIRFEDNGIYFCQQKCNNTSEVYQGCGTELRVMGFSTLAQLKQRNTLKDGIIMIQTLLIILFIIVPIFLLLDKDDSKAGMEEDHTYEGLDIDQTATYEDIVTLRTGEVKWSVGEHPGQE

No constants are given. Whether binding was seen depends on the method and setting. Binding seen in cells or lysates may run through a third protein. Some results given as binding are weak or reduced against the parent protein; the word gives no strength. For some of these results: Where a sequence is shown, tags or fusion partners need not be part of it.

The target of test [1] is T1, WT BAFFR-RFP fusion protein (human) (UniProt Q96RJ3).
T1 sequence: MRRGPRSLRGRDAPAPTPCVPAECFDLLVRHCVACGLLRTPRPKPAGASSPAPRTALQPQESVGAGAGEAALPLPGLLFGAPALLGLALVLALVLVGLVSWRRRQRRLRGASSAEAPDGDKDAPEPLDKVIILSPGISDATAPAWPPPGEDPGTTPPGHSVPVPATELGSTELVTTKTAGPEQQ
The test can be described thus: FRET or BRET; FRET from GFP to RFP read by flow cytometry (percent FRET+ of double-positive cells) in DG-75 BAFFR KO cells co-expressing BAFFR-GFP and BAFFR-RFP fusion proteins (same variant on both, or variant-GFP with WT BAFFR-RFP); resting cells or 50 ng/ml BAFF for 1 h at 37 °C. On the technique in general: Bioluminescence resonance energy transfer reports proximity on the nanometre scale.

Test [2] has as its target BAFFR DUP92-95-GFP fusion protein (human) (UniProt Q96RJ3). The test is described as above.
For test [3], the target named is CD79B-RFP fusion protein (UniProt P40259). Briefly: FRET or BRET; FRET from GFP to RFP read by flow cytometry (percent FRET+ cells) in DG-75 BAFFR KO cells co-expressing WT or variant BAFFR-GFP and CD79B-RFP; without ligand or 1 h after adding 100 ng/ml BAFF.
Test [4] addresses BAFFR A52T-GFP fusion protein (human) (UniProt Q96RJ3). Briefly: FRET or BRET; FRET from GFP to RFP read by flow cytometry (percent FRET+ of double-positive cells) in DG-75 BAFFR KO cells co-expressing BAFFR-GFP and BAFFR-RFP fusion proteins (same variant on both, or variant-GFP with WT BAFFR-RFP); resting cells or 50 ng/ml BAFF for 1 h at 37 °C.
Test [5] addresses BAFFR P146S-GFP fusion protein (human) (UniProt Q96RJ3). The description is as above.
Test [6] deals with WT BAFFR-GFP fusion protein (human) (UniProt Q96RJ3). The test is described as above.
Test [7] deals with BAFFR G64V-GFP fusion protein (human) (UniProt Q96RJ3). The description is as above.
The target of test [8] is BAFFR H159Y-GFP fusion protein (human) (UniProt Q96RJ3). The test is described as above.

As to “BAFFR P21R-GFP fusion protein (from UniProt Q96RJ3 1-184) (receptor)”, the binding entry in test [1] is on record as “binds”.

With “BAFFR DUP92-95-GFP fusion protein (from UniProt Q96RJ3 1-184) (receptor)”, the binding entry in test [2] and in test [1] was “binds” throughout.

Consider “BAFFR P21R-H159Y-GFP fusion protein (from UniProt Q96RJ3 1-184) (receptor)”, for which the binding result in test [3] and in test [1] was “binds” in each case.

In the case of “BAFFR A52T-GFP fusion protein (from UniProt Q96RJ3 1-184) (receptor)”, the binding entry in test [1] and in test [4] was “binds” in each case.

Consider “BAFFR P146S-GFP fusion protein (from UniProt Q96RJ3 1-184) (receptor)”, for which the binding entry in test [3], in test [1] and in test [5] was “binds” throughout.

In the case of “WT BAFFR-GFP fusion protein (from UniProt Q96RJ3 1-184) (receptor)”, the binding entry in test [6] was “binds”.

“BAFFR G64V-GFP fusion protein (from UniProt Q96RJ3 1-184) (receptor)”: the binding entry in test [1] and in test [7] was “binds” in each case.

Regarding “BAFFR H159Y-GFP fusion protein (from UniProt Q96RJ3 1-184) (receptor)”, the binding result in test [3], in test [1] and in test [8] was “binds” in each case.
